Test results from article PMC9830511, “Flot2 acts as a novel mediator of podocyte injury in proteinuric kidney disease” (International Journal of Biological Sciences, 2023).

Target: Glutathione S-transferase (GST) alone
Assay: pull-down; GST pull-down: GST-Flot2 (30-184) or GST on GST resin; His-podocin (128-284) pulled out of the lysates; immunoblot with anti-His; only the target purified

binding: no binding
B1: His-podocin (amino acids 128-284), SPFH domain (domain or fragment, UniProt Q91X05 128-284)
chain: KVVQEYERVIIFRLGHLLPGRAKGPGLFFFLPCLDTYHKVDLRLQTLEIPFHEVVTKDMFIMEIDAVCYYRMENASLLLSSLAHVSKAIQFLVQTTMKRLLAHRSLTEILLERKSIAQDVKVALDAVTCIWGIKVERTEIKDVRLPAGLQHSLAVEA

These are yes or no findings as the source states them, for the method shown. In cells and extracts the contact can be indirect. Where a sequence is shown, tags or fusion partners need not be part of it.
